From article PMC8662705 come the findings set out here.

Protein sequences, listed by entry. Tags and fused reporters are not part of them. Lines headed by an entry give the natural chain unless they say otherwise; changes in a name come on top.
UniProt A0A6P6R941: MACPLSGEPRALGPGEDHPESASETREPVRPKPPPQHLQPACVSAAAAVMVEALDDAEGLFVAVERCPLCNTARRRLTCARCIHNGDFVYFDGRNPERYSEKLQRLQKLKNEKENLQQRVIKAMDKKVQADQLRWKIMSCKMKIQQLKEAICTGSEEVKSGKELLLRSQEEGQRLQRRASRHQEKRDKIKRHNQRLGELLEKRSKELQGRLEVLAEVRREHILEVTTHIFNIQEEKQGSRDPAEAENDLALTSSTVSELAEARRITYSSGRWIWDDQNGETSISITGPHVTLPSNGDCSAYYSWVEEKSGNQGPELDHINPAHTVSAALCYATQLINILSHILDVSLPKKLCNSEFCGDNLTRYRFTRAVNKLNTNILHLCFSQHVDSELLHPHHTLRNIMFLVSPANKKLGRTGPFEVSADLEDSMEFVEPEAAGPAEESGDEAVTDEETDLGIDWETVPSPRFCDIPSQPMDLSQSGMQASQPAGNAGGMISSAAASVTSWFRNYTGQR

No constants are given. Whether binding was seen depends on the method and setting. In cells and extracts the contact can be indirect. A result given as binding can be weak or reduced; the word gives no strength.

The target of this assay is CaMITA-Myc (crucian carp (C. auratus)). Nature of the assay: co-IP; HEK 293T cells co-transfected (10 µg plasmids in all), 24 h; lysed in RIPA lysis buffer with protease inhibitors at 4°C; supernatant with anti-Flag or anti-Myc affinity gel overnight at 4°C; washed three times with lysis buffer; western blotting. (In general: A western blot detects proteins with antibodies after separation by electrophoresis.)

For the substance CaATG14-HA (from UniProt A0A6P6R941), the binding entry is given as “binds”.
